From PMC10940101
These are yes or no findings as the source states them, for the method shown. Binding seen in cells or lysates may run through a third protein. Tags and fused reporters may be left off the sequences shown.

Molecular target: ATR with deletion of the N-terminal region
Experiment: co-IP; exogenous; proteins co-expressed from plasmids in HEK293T cells

B1: Myc-tagged TRIM56 (exogenous, WT) (protein, UniProt Q9BRZ2 1-755)
chain: MVSHGSSPSLLEALSSDFLACKICLEQLRAPKTLPCLHTYCQDCLAQLADGGRVRCPECRETVPVPPEGVASFKTNFFVNGLLDLVKARACGDLRAGKPACALCPLVGGTSTGGPATARCLDCADDLCQACADGHRCTRQTHTHRVVDLVGYRAGWYDEEARERQAAQCPQHPGEALRFLCQPCSQLLCRECRLDPHLDHPCLPLAEAVRARRPGLEGLLAGVDNNLVELEAARRVEKEALARLREQAARVGTQVEEAAEGVLRALLAQKQEVLGQLRAHVEAAEEAARERLAELEGREQVARAAAAFARRVLSLGREAEILSLEGAIAQRLRQLQGCPWAPGPAPCLLPQLELHPGLLDKNCHLLRLSFEEQQPQKDGGKDGAGTQGGEESQSRREDEPKTERQGGVQPQAGDGAQTPKEEKAQTTREEGAQTLEEDRAQTPHEDGGPQPHRGGRPNKKKKFKGRLKSISREPSPALGPNLDGSGLLPRPIFYCSFPTRMPGDKRSPRITGLCPFGPREILVADEQNRALKRFSLNGDYKGTVPVPEGCSPCSVAALQSAVAFSASARLYLINPNGEVQWRRALSLSQASHAVAALPSGDRVAVSVAGHVEVYNMEGSLATRFIPGGKASRGLRALVFLTTSPQGHFVGSDWQQNSVVICDGLGQVVGEYKGPGLHGCQPGSVSVDKKGYIFLTLREVNKVVILDPKGSLLGDFLTAYHGLEKPRVTTMVDGRYLVVSLSNGTIHIFRVRSPDS
binding: no binding
